# From PubChem BioAssay AID504834 (National Center for Advancing Translational Sciences (NCATS), 2011)
# About 22,000 (6.9%) of roughly 320,000 compounds were called active. The inconclusive results got no clear call from the source; some entries with a clear call stand among them for comparison. Calls follow the shape of the dose curve; as a rule, active = well fitted inhibition curve with a large enough effect; inconclusive = small, poorly fitted or top-dose-only effect, or another doubt; inactive = no such curve, though single readings can be large or run the other way. A potency beside an inconclusive call is a rough fit, not a confirmed value.
# Assay: Primary qHTS for delayed death inhibitors of the malarial parasite plastid, 96 hour incubation
# Settings: P. falciparum luciferase reporter growth; series mostly up to 28.7 µM
# Source text: The goal of this screen is to discover new antimalarial compounds that act by inhibiting the development of the apicoplast in the malarial parasite Plasmodium falciparum. The biochemical processes that make this organelle essential for erythrocytic stage parasites are not well understood. However, antibiotics such as azithromycin and tetracycline, which target the apicoplast translational machinery, have a potent antimalarial effect.
# We have developed a cell-based assay that measures parasite growth based on the expression of an integrated copy of a firefly luciferase reporter. To detect small molecules that cause this "delayed death" phenotype, erythrocytes infected with the luciferase-expressing parasites were incubated with compounds for either one or two generations, corresponding to 48 and 96 hours, respectively. Compounds that inhibit parasite growth in the second generation, but not the first, should be enriched in antimalarials that target the apicoplast. Growth inhibition is detected by a decrease in luciferase activity.
# Assay Provider: David Fidock and Eric Ekland, Columbia University
# Keywords: NIH Roadmap, MLPCN, MLI, MLSMR, qHTS, NCGC, qHTS, malaria, luciferase, viability
# Four microliters of infected erythrocytes (2% hematocrit, 0.05% parasitemia final concentration) in culture medium were dispensed and the plates incubated for 96 hours at 37 C in 5% CO2. Two microliters of luciferase detection reagent was added and luminescence was detected by a ViewLux (PerkinElmer) reader.
# Potency is read from the fitted curve at half-maximal effect.
row,Structure (SMILES),Potency
1,COc1ccc(OCCSc2nnc(C)n2-c2ccccc2)cc1,"inconclusive: 13.1 µM [inhibitor, single point]"
2,Cc1ccccc1/C=N/Nc1ccnc2cc(Cl)ccc12,active: 0.828 µM
3,O=C(NC(=S)NCCC1=CCCCC1)c1cccnc1,"inconclusive: 4.65 µM [inhibitor, partial curve]"
4,CC1(C)CC(=O)N(CC(=O)O)c2ccccc2S1(=O)=O,"inconclusive: 8.28 µM [inhibitor, partial curve]"
5,CCOC(=O)COc1ccc2c(C)c(CCN(CC)CC)c(=O)oc2c1Cl,"inconclusive: 7.57 µM [inhibitor, partial curve, poor fit]"
6,COCCCNC(=O)CN(CCc1ccccc1)S(=O)(=O)c1ccc(C)cc1,"inconclusive: 2.94 µM [inhibitor, partial curve, poor fit]"
7,CC(=O)c1ccc(N2CCN(S(=O)(=O)c3ccc4c5c3CC(=O)N5CC(C)S4)CC2)cc1 (stereo not drawn),"inconclusive: 0.0029 µM [inhibitor, full curve, poor fit]"
8,CCOC(=O)N1CCN(C(=O)c2ccc3c(c2)N(CC)CCS3)CC1,"inconclusive: 20.8 µM [inhibitor, single point]"
9,O=C(Nc1nc2ccc(S(=O)(=O)N3CCCC3)cc2s1)c1ccccn1,inactive
10,CC(=O)c1cn(-c2ccc(Cl)cc2)c(=O)n(Cc2ccc(Br)cc2)c1=O,inactive
11,CN1CCN(Cc2cc(=O)n3ccsc3n2)CC1,"inconclusive: 18.5 µM [inhibitor, single point]"
12,COc1ccc(-n2nc(C(=O)NCC(=O)N3CCN(c4ccccn4)CC3)c3ccccc3c2=O)cc1Cl,"inconclusive: 11.7 µM [inhibitor, partial curve]"
13,Cc1ccccc1OCC(=O)Nc1ccc2c(c1)C(=O)N(CCC(=O)O)C2=O,inactive
14,COc1ccc(C(NC(=O)/C=C/c2ccco2)c2ccc(OC)cc2)cc1,active: 2.33 µM
15,c1csc(CCNc2ncnc3sc4c(c23)CCC4)c1,"inconclusive: 18.5 µM [inhibitor, single point]"
16,CC(Oc1cccc(Br)c1)C(=O)N1CCCN(C)CC1 (stereo not drawn),"inconclusive: 13.1 µM [inhibitor, single point]"
17,COc1ccc(C)cc1NC(=O)c1ccc2c(SCC(=O)O)c3c(nc2c1)CCCC3,active: 8.28 µM
18,COc1ccc(OC)c(-c2nnc(SCC(=O)NC3CCCCC3)o2)c1,"inconclusive: 10.4 µM [inhibitor, single point]"
19,CC[C@]1(O)CC2CN(CCc3c([nH]c4ccccc34)[C@@](C(=O)OC)(c3cc4c(cc3OC)N(C=O)[C@H]3[C@@](O)(C(=O)OC)[C@H](OC(C)=O)[C@]5(CC)C=CCN6CC[C@]43[C@@H]65)C2)C1 (stereo partly drawn),active: 0.262 µM
20,COc1cccc(NC(=O)CN(C)C(=O)Cc2ccc(Cl)cc2Cl)c1,"inconclusive: 18.5 µM [inhibitor, single point]"
21,CCOc1ccc(N(CC(=O)N2CCCCCC2)S(=O)(=O)c2ccc(C)cc2)cc1,"inconclusive: 18.5 µM [inhibitor, single point]"
22,CCCCN(C(=O)c1ccccc1OCc1ccc(F)cc1)c1c(N)n(CCC)c(=O)[nH]c1=O,"inconclusive: 10.4 µM [inhibitor, partial curve, poor fit]"

row,Structure (SMILES),Potency
1,COC(=O)C1=C(C)N(Cc2ccccc2)C(=NCc2ccc3c(c2)OCO3)N[C@H]1c1ccccc1,"inconclusive: 2.33 µM [inhibitor, full curve, poor fit]"
2,CC1CCCC(C)N1C(=O)COC(=O)c1cc(Br)ccc1Cl (stereo not drawn),"inconclusive: 2.94 µM [inhibitor, full curve, poor fit]"
3,Cc1ccc(-c2ccc(C(=O)NCc3ccccc3)o2)c2ccccc12,active: 10.4 µM
4,COc1ccc(C(=O)N/C(=C\c2ccccc2)C(=O)Nc2ccc(C(=O)NCC(=O)O)cc2)cc1,"inconclusive: 10.4 µM [inhibitor, partial curve, poor fit]"
5,COc1cccc(-c2nc(NCC3CCCO3)c3ccccc3n2)c1O (stereo not drawn),inactive
6,CC(C)CCNC(=O)CN(Cc1ccccc1Cl)C(=O)CCC(=O)Nc1ccccn1,"inconclusive: 10.4 µM [inhibitor, single point]"
7,CC(C)(C)c1nc2ccc([N+](=O)[O-])cc2[nH]1,inactive
8,COc1ccc(/C=C(\NC(=O)/C=C/c2ccco2)C(=O)NCCc2nc3ccccc3[nH]2)cc1,inactive
9,CCCNC(=O)C1CC(=O)N(c2ccc(OCC(=O)Nc3cc(C)cc(C)c3)cc2)C1 (stereo not drawn),"inconclusive: 2.62 µM [inhibitor, single point]"
10,CC(=O)c1ccc(S(=O)(=O)N2CCN(C)CC2)cc1,"inconclusive: 10.4 µM [inhibitor, single point]"
11,O=c1c2cc(NC(=S)N3CCCCCC3)ccc2nc2n1CCCCC2,inactive
12,CCc1nc2c(oc3ccccc32)c(=O)[nH]1,inactive
13,O=S(Cc1ccc(Br)cc1)Cc1nnc(SCc2c(F)cccc2Cl)n1-c1ccccc1 (stereo not drawn),"inconclusive: 9.28 µM [inhibitor, partial curve, poor fit]"
14,CNCCC=C1c2ccccc2CCc2ccccc21,active: 9.53 µM
15,CN(c1ccc(O)cc1)c1nc(-c2ccccc2)cs1,inactive
16,Cc1ccc(S(=O)(=O)N2CCCCC2)cc1NC(=O)COC(=O)CNC(=O)c1cc(Cl)cc([N+](=O)[O-])c1,"inconclusive: 10.4 µM [inhibitor, partial curve, poor fit]"
17,O=C(Nc1ccsc1C(=O)NC1CCCCC1)c1ccc(F)cc1,active: 1.65 µM
18,CCN1CCN(CCNC(=O)c2ccc(/C=C3\Sc4ccccc4N(Cc4ccccc4F)C3=O)cc2)CC1,"inconclusive: 16.5 µM [inhibitor, partial curve, poor fit]"
19,CN(CC(=O)Nc1ccccc1C(=O)NC1CC1)Cc1ccc(N(C)C)cc1,inactive
20,COc1ccc(-c2nc(Cn3c(SCc4ccccc4F)nc4ccncc43)c(C)o2)cc1,active: 4.65 µM
21,CCCc1c(NC(=O)Nc2ccc(F)cc2)cnn1-c1ccc(Cl)cc1,"inconclusive: 5.86 µM [inhibitor, partial curve, poor fit]"

# Individual results from the entries so far:
# Potency, `c1csc(CCNc2ncnc3sc4c(c23)CCC4)c1` reads inconclusive: 18.5 µM [inhibitor, single point]
# Potency, `O=c1c2cc(NC(=S)N3CCCCCC3)ccc2nc2n1CCCCC2` reads inactive
# Potency, `CC1CCCC(C)N1C(=O)COC(=O)c1cc(Br)ccc1Cl` (stereo not drawn) reads inconclusive: 2.94 µM [inhibitor, full curve, poor fit]
